Measurements reported in PMC10115178.

Protein sequences, listed by entry. Tags and fused reporters are not part of them.
UniProt Q09472, whole entry: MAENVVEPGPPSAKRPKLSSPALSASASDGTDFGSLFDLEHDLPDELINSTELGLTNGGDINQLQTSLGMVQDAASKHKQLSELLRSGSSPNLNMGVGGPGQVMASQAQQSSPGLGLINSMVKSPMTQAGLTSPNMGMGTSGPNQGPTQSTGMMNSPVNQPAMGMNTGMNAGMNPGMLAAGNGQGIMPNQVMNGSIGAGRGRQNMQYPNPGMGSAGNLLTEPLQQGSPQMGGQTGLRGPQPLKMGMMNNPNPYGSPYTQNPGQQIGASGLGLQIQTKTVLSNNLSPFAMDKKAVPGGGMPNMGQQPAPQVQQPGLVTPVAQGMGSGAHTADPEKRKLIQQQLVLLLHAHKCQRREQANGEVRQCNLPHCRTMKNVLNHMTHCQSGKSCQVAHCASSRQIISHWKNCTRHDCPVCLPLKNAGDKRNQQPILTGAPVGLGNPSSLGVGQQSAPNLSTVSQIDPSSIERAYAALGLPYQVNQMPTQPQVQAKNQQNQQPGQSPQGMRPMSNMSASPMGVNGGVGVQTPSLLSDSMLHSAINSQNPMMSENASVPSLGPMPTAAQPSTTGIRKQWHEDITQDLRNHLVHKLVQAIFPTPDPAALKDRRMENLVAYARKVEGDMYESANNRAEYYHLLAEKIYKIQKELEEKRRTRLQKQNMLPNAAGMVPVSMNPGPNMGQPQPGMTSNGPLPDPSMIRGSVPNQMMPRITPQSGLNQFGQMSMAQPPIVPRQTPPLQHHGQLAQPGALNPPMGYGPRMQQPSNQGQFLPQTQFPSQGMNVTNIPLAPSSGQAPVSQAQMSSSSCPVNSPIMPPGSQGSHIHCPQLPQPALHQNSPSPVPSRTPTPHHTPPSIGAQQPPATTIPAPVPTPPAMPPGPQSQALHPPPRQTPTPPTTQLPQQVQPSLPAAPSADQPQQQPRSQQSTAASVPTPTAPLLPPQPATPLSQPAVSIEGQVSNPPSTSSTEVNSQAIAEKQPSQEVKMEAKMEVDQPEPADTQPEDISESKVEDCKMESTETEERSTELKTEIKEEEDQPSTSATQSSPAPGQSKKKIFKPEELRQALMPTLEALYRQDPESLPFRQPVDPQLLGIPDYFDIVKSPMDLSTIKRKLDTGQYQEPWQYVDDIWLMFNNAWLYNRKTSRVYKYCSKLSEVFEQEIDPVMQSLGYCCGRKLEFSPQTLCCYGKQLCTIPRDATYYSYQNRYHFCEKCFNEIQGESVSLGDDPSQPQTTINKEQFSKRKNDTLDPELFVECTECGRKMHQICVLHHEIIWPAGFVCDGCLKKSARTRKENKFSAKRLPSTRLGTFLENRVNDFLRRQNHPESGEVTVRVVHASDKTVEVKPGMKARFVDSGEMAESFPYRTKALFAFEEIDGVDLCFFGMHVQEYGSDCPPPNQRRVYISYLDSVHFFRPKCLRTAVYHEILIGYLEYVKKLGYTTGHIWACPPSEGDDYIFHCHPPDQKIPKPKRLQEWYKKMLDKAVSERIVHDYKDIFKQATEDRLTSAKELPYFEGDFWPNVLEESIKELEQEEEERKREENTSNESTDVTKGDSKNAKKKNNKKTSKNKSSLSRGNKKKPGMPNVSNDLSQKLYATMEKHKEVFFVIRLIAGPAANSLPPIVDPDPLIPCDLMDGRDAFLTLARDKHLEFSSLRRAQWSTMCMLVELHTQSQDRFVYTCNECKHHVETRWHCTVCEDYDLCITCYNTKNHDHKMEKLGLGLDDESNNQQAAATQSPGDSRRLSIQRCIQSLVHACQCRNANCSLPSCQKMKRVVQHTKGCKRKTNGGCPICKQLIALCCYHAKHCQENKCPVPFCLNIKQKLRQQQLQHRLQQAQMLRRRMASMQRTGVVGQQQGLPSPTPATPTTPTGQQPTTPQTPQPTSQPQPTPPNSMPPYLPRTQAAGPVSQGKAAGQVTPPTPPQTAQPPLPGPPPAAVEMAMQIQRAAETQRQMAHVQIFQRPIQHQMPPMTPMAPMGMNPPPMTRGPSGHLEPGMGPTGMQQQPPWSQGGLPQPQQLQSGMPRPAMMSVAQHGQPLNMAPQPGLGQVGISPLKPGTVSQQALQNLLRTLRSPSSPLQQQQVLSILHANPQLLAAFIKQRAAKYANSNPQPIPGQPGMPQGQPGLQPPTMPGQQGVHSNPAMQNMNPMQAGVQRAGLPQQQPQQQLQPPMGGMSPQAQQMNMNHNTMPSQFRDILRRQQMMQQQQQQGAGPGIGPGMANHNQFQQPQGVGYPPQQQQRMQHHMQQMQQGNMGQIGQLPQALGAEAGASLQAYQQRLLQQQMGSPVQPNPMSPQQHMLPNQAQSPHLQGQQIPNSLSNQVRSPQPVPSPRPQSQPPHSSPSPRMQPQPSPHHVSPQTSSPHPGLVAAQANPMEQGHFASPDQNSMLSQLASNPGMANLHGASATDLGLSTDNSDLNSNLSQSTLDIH

Columns and labels:
EP300 [1] = target: EP300 (UniProt Q09472); test: EMSA supershift; details: anti-EP300 1 or 1.5 ug, bands 3 and 4 weakened, C stronger than T for band 3; Beyotime 5x EMSA/Gel-Shift Binding buffer (2 uL), SH-SY5Y nuclear extract 1.5-6 ug, 50 fmol biotin probe, unlabeled competitor 750 fmol; protein in an extract; label: 3' biotin
REST [2] = target: T1, REST (UniProt Q13127); test: EMSA supershift; details: anti-REST 0.8 ug, 6 ug extract, band 3 weakened, C stronger than T for band 3; Beyotime 5x EMSA/Gel-Shift Binding buffer (2 uL), SH-SY5Y nuclear extract 1.5-6 ug, 50 fmol biotin probe, unlabeled competitor 750 fmol; protein in an extract; label: 3' biotin
T1 sequence (looked up, limits assumed): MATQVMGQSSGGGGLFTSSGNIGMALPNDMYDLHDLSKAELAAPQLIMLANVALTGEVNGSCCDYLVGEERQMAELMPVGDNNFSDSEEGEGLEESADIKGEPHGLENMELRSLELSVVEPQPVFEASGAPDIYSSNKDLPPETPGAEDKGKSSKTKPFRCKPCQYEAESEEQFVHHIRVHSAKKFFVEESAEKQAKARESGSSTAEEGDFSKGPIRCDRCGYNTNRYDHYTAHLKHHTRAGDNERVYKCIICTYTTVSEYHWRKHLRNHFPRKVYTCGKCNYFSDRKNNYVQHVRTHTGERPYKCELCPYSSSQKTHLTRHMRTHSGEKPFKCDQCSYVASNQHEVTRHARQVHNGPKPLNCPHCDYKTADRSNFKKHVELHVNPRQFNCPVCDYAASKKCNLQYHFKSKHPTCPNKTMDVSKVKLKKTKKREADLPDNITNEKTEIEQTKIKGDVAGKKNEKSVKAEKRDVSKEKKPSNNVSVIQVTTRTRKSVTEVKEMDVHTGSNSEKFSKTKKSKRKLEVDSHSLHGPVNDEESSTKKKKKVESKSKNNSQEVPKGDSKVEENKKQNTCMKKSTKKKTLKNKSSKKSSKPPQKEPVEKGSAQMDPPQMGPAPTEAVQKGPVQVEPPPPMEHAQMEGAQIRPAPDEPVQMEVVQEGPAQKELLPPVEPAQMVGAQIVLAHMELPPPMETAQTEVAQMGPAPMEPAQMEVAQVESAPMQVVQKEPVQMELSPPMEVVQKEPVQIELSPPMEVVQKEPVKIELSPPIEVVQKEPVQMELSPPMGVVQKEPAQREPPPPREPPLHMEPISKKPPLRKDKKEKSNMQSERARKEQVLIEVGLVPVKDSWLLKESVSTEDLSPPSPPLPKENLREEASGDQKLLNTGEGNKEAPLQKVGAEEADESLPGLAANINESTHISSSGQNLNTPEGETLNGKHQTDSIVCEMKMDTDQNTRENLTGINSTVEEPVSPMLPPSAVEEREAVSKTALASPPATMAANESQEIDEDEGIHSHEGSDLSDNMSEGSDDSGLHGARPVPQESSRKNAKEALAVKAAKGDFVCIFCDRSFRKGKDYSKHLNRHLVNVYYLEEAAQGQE

EP300 [3] = target: EP300 (UniProt Q09472); test: EMSA; details: band 3 (weakened by EP300 antibody) weaker than C allele, supershift per allele not stated; Beyotime 5x EMSA/Gel-Shift Binding buffer (2 uL), SH-SY5Y nuclear extract 1.5-6 ug, 50 fmol biotin probe, unlabeled competitor 750 fmol; protein in an extract; label: 3' biotin
REST [4] = target: T1, REST; test: EMSA; details: band 3 (assigned to REST by antibody) weaker than C allele, supershift per allele not stated; Beyotime 5x EMSA/Gel-Shift Binding buffer (2 uL), SH-SY5Y nuclear extract 1.5-6 ug, 50 fmol biotin probe, unlabeled competitor 750 fmol; protein in an extract; label: 3' biotin

GGATGGGAGCTTTCCTGGCCCCAGTGCCCCATGGGTTAGTG (double strand) [rs10786700 C allele (risk) 41 bp]
binding result (EP300 [1]): binds
binding result (REST [2]): binds

GGATGGGAGCTTTCCTGGCCTCAGTGCCCCATGGGTTAGTG (double strand) [rs10786700 T allele (non-risk) 41 bp]
binding result (EP300 [3]): binds more weakly
binding result (REST [4]): binds more weakly

The exact form of at least one protein or probe is not confirmed. At least one result comes from cells or an extract, where the contact may be indirect. For some of these results: Weaker means in comparison with the reference protein, sequence or condition of that experiment. At least one verdict rests on a figure or table, not on a statement of the authors. For some of these results: Where a protein sequence is shown, tags need not be part of it.
